From PubChem BioAssay AID330 (DTP/NCI, 2004)
The list is a part of this screen's results and no random one: it is rich in T/C values a quarter to a half above the control, in often repeated tests (any T/C) and in doses without a T/C. Further doses and runs are listed elsewhere. T/C gives the treated animals as a percentage of the vehicle group. Some entries give survivors of the animals treated and no T/C: the source files T/C as zero there, which appears to mark a toxic dose or a test without result, not a measured value. Some survivor counts are full or nearly so, which does not show that the dose was tolerated: the source hardly ever lists a survival T/C far under the control, and the zero likely stands for such cases as well. Survivors were counted at the toxicity check, usually on the fifth day, unless a day is given; later deaths do not show. Schedule codes are those of the source, read here as Q, the interval in days (D) or hours (H), X, the number of doses. Some entries were tested several times; the results are listed from low to high. Additions like (4×) count equal records among those shown. Where survival is the endpoint, this PubChem deposit counts one and a half times the control or more as active, and values a quarter to a half above the control carry no call in these data; other NCI protocols may use other cut-offs. Some T/C values are followed by the survivors on the day toxicity was checked, most often the fifth; without a count, all were alive then.

Tested on: P388 leukemia ip, CD2F1 mice, survival T/C
Assay: NCI In Vivo Anticancer Drug Screen. Data for tumor model P388 Leukemia (intraperitoneal) in CD2F1 (CDF1) mice
Details: T/C endpoint: median survival time, higher T/C = longer survival
[1] = dose: 120.0 mg/kg/injection, schedule: Q01DX005 (ip), vehicle: saline with Tween-80
[2] = dose: 240.0 mg/kg/injection, schedule: Q01DX005 (ip), vehicle: saline with Tween-80
[3] = dose: 200.0 mg/kg/injection, schedule: Q01DX009 (ip), vehicle: saline with Tween-80
[4] = dose: 50.0 mg/kg/injection, schedule: Q01DX009 (ip), vehicle: Klucel (hydroxypropylcellulose) (HPC)
[5] = dose: 200.0 mg/kg/injection, schedule: Q01DX009 (ip), vehicle: Klucel (hydroxypropylcellulose) (HPC)
[6] = dose: 200.0 mg/kg/injection, schedule: Q04DX003 (ip), vehicle: saline with Tween-80
[7] = dose: 100.0 mg/kg/injection, schedule: Q01DX005 (ip), vehicle: saline with Tween-80
[8] = dose: 200.0 mg/kg/injection, schedule: Q01DX005 (ip), vehicle: saline with Tween-80
[9] = dose: 200.0 mg/kg/injection, schedule: Q01DX005 (ip), vehicle: Klucel (hydroxypropylcellulose) (HPC)
[10] = dose: 100.0 mg/kg/injection, schedule: Q04DX003 (ip), vehicle: saline with Tween-80
[11] = dose: 50.0 mg/kg/injection, schedule: Q01DX005 (ip), vehicle: saline with Tween-80
[12] = dose: 200.0 mg/kg/injection, schedule: Q01DX009 (ip), vehicle: saline
[13] = dose: 400.0 mg/kg/injection, schedule: Q01DX009 (ip), vehicle: saline with Tween-80
[14] = dose: 50.0 mg/kg/injection, schedule: Q01DX009 (ip), vehicle: saline with Tween-80
[15] = dose: 400.0 mg/kg/injection, schedule: Q04DX003 (ip), vehicle: saline with Tween-80
[16] = dose: 100.0 mg/kg/injection, schedule: Q01DX005 (ip), vehicle: Klucel (hydroxypropylcellulose) (HPC)
[17] = dose: 120.0 mg/kg/injection, schedule: Q01DX005 (ip), vehicle: saline
[18] = dose: 240.0 mg/kg/injection, schedule: Q01DX005 (ip), vehicle: saline

For `COC1=C2CC(C)CC(OC)C(O)C(C)/C=C(\C)C(OC(N)=O)C(OC)/C=C\C=C(/C)C(=O)NC(=C(C=NC(C)(C)C)C1=O)C2=O` (stereo unspecified), the survivor count [1] was 1 of 6 and the survivor count [2] was 0 of 6.

`CN1CCC(COC(=O)CC(C)(C)C)C1` (stereo unspecified) was tested, and the survivor count (dose: 200.0 mg/kg/injection, schedule: Q01DX009 (ip), vehicle: water) was 0 of 6.

For `O=C(CC(=O)C(F)(F)F)c1ccc(-c2ccccc2)cc1`, the survivor count [3] was 0 of 6.

For `C[As](C)SCCC(CCCCC(=O)O)S[As](C)C` (stereo unspecified), the T/C (dose: 25.0 mg/kg/injection, schedule: Q01DX009 (ip), vehicle: Klucel (hydroxypropylcellulose) (HPC)) was 128 % of control, the T/C [4] was 128 % of control and the survivor count [4] was 1 of 6. For the same compound, the survivor count (dose: 100.0 mg/kg/injection, schedule: Q01DX009 (ip), vehicle: Klucel (hydroxypropylcellulose) (HPC)) was 2 of 6, the survivor count [5] was 0 of 6 and the survivor count [6] was 0 of 6.

With `COc1ccc2c(c1OC)C(=C(Cl)Cl)N1CCc3cc4c(cc3C1=C2C=O)OCO4` the survivor count [7] was 6 of 6 and the survivor count [8] was 6 of 6.

`CCCCNC1Cc2ccccc2CC1O` (stereo unspecified) was tested, and the survivor count (dose: 50.0 mg/kg/injection, schedule: Q01DX005 (ip), vehicle: saline) was 0 of 6, the survivor count (dose: 100.0 mg/kg/injection, schedule: Q01DX005 (ip), vehicle: saline) was 0 of 6 and the survivor count (dose: 200.0 mg/kg/injection, schedule: Q01DX005 (ip), vehicle: saline) was 0 of 6.

In the case of `Cc1cc(Cl)cc2c1OCOC2`, the survivor count (dose: 200.0 mg/kg/injection, schedule: Q01DX009 (ip), vehicle: acetone) is reported as 3 of 6.

In the case of `[N-]=[N+]=NC1(N=[N+]=[N-])C(=O)Nc2ccc(Cl)cc2C1=O` (stereo unspecified), the survivor count [9] is reported as 2 of 6.

`O=C1CC2(CCCC2)CC(=O)N1c1ccc(-c2ccc(N3C(=O)CC4(CCCC4)CC3=O)cc2)cc1` was tested, and the survivor count [5] was 6 of 6.

For `C=C(C(=O)c1ccccc1C(=O)O)c1cccc(OC)c1`, the T/C (dose: 100.0 mg/kg/injection, schedule: Q04DX002 (ip), vehicle: saline with Tween-80) was 130 % of control [5 of 6 alive], the survivor count (dose: 200.0 mg/kg/injection, schedule: Q04DX002 (ip), vehicle: saline with Tween-80) was 0 of 6 and the survivor count (dose: 400.0 mg/kg/injection, schedule: Q04DX002 (ip), vehicle: saline with Tween-80) was 0 of 6.

With `O=C(Cn1cnc2c(=S)nc[nH]c21)Oc1ccc([N+](=O)[O-])cc1` the survivor count [10] was 6 of 6.

`CCc1nc(N)nc(N)c1-c1ccc([N+](=O)[O-])c(Cl)c1` was tested, and the T/C [11] was 125 % of control.

In the case of `Oc1cccnc1Cl`, the T/C (dose: 600.0 mg/kg/injection, schedule: Q01DX009 (ip), vehicle: saline) is reported as 127 % of control.

With `CCCCCCCCCCCCCCOCCS(=O)(=O)O` the survivor count [1] was 6 of 6.

With `CCOC(=O)c1n[nH]c(C)c1CC(N)c1ccccc1` (stereo unspecified) the survivor count [11] was 0 of 5 (2×), the survivor count [7] was 0 of 5 and the survivor count [8] was 0 of 5.

With `CN(C)c1nc(Cl)c2cc(Cl)ccc2n1` the survivor count (dose: 240.0 mg/kg/injection, schedule: Q01DX005 (ip), vehicle: Klucel (hydroxypropylcellulose) (HPC)) was 3 of 6.

With `COCC(O)C(NC(=O)CCl)C(=O)O` (stereo unspecified) the survivor count [12] was 5 of 6.

In the case of `N#Cc1ccc(NN=NCCOCCCl)cc1`, the survivor count [3] is reported as 4 of 6 and the survivor count [13] is reported as 0 of 6.

With `O=C(CC(=O)CC(O)(C(F)(F)F)C(F)(F)F)CC(O)(C(F)(F)F)C(F)(F)F` the survivor count (dose: 5.0 mg/kg/injection, schedule: Q04DX003 (ip), vehicle: saline) was 0 of 6.

`O=C1c2ccccc2C(=O)N1CCCC[P+](c1ccccc1)(c1ccccc1)c1ccccc1` was tested, and the survivor count (dose: 12.0 mg/kg/injection, schedule: Q01DX009 (ip), vehicle: other) was 4 of 6.

For `Cc1cc(N(CCCl)CCCl)ccc1N=Nc1ccccc1C(=O)[O-].Cc1cc(N(CCCl)CCCl)ccc1N=Nc1ccccc1C(=O)[O-].[Cu+2]`, the T/C (dose: 3.0 mg/kg/injection, schedule: Q04DX003 (ip), vehicle: saline with Tween-80) was 125 % of control, the T/C (dose: 6.0 mg/kg/injection, schedule: Q04DX003 (ip), vehicle: saline with Tween-80) was 130 % of control and the survivor count [14] was 5 of 6. The survivor count [10] was 6 of 6, the survivor count [6] was 6 of 6 and the survivor count [15] was 6 of 6.

`N#CC(Cl)CNC(=O)Oc1ccccc1` (stereo unspecified) was tested, and the survivor count [16] was 0 of 6, the survivor count [9] was 0 of 6 and the survivor count (dose: 400.0 mg/kg/injection, schedule: Q01DX005 (ip), vehicle: Klucel (hydroxypropylcellulose) (HPC)) was 0 of 6.

With `CC1=NC(C)(Cc2ccccc2)SC1c1ccccc1` (stereo unspecified) the survivor count [8] was 3 of 6.

With `NNP(=O)(NN)C(Cl)(Cl)Cl` the survivor count [17] was 6 of 6 and the survivor count [18] was 0 of 6.

In the case of `NC(=O)CCSC1=CC(=O)c2ccccc2C1=O`, the survivor count (dose: 25.0 mg/kg/injection, schedule: Q04DX003 (ip), vehicle: saline with Tween-80) is reported as 0 of 6, the survivor count (dose: 50.0 mg/kg/injection, schedule: Q04DX003 (ip), vehicle: saline with Tween-80) is reported as 0 of 6 and the survivor count [10] is reported as 0 of 4. The survivor count [6] was 0 of 4 and the survivor count [15] was 0 of 4.

In the case of `C(=N/NC1=NCCN1)/c1ccnc2ccccc12`, the survivor count [17] is reported as 1 of 6 and the survivor count [18] is reported as 0 of 6.

For `COc1ccc(CSC(=S)Nc2ccc(F)c(C)c2)cc1`, the survivor count (dose: 200.0 mg/kg/injection, schedule: Q01DX009 (ip), vehicle: suspension in saline) was 3 of 6.

`C=CCN(CC=C)c1ccc(/C=C\c2ccnc3ccccc23)cc1` was tested, and the survivor count [14] was 6 of 6, the survivor count (dose: 100.0 mg/kg/injection, schedule: Q01DX009 (ip), vehicle: saline with Tween-80) was 5 of 6 and the survivor count [3] was 0 of 6. For the same compound, the survivor count [13] was 0 of 6.

With `COc1oc(C2C/C(=C/C(C)=C/C(C)=C/C(C)=C/c3ccc([N+](=O)[O-])cc3)CO2)c(C)c(=O)c1C` (stereo unspecified) the T/C (dose: 0.5 mg/kg/injection, schedule: Q01DX005 (ip), vehicle: saline) was 129 % of control, the T/C (dose: 1.0 mg/kg/injection, schedule: Q01DX005 (ip), vehicle: saline) was 140 % of control and the T/C (dose: 2.0 mg/kg/injection, schedule: Q01DX005 (ip), vehicle: saline) was 148 % of control. For the same compound, the survivor count (dose: 4.0 mg/kg/injection, schedule: Q01DX005 (ip), vehicle: saline) was 4 of 6 and 6 of 6.

`NS(=O)(=O)c1ccc(N=Nc2nc3[nH]c(=O)[nH]c(=O)c3[nH]2)cc1` was tested, and the survivor count (dose: 50.0 mg/kg/injection, schedule: Q01DX005 (ip), vehicle: Klucel (hydroxypropylcellulose) (HPC)) was 0 of 6, the survivor count [16] was 0 of 6 and the survivor count [9] was 0 of 6.

`C[n+]1c2ccccc2c(N)c2ccccc21` was tested, and the survivor count (dose: 60.0 mg/kg/injection, schedule: Q04DX002 (ip), vehicle: saline with Tween-80) was 1 of 6 and the survivor count (dose: 120.0 mg/kg/injection, schedule: Q04DX002 (ip), vehicle: saline with Tween-80) was 1 of 6.

For `CCNCc1c(C)[nH]c2ccc(N(C)C)cc2c1=O`, the survivor count [12] was 6 of 6.

With `O=C(Nc1c(Cl)cccc1Cl)Oc1cccc2cccnc12` the survivor count [1] was 6 of 6 and the survivor count [2] was 6 of 6.

With `COc1ccc(/C=C/C(=O)c2ccc3c(c2)OCO3)cc1OC` the T/C [10] was 145 % of control.
